Measured values published in patent US11787816B2, “Chlorin compound, and preparation and use thereof” (Southwest Jiaotong University, priority 2021, dated 2023).

Tests used:
Format in all cases: cell-based
[1] = test system: Human cervical cancer cells (Hela line); test: Enrichment in tumor cells (flow cytometry fluorescence), Hela; settings: 10 μg/mL
[2] = test system: murine mammary carcinoma cells (4T1 line); test: Enrichment in tumor cells (flow cytometry fluorescence), 4T1; settings: 4T1 cells, 10 μg/mL
[3] = test system: human hepatocellular carcinoma cells (huh-7 line); test: Enrichment in tumor cells (flow cytometry fluorescence), huh-7; settings: huh-7 cells, 10 μg/mL

Substance | incubation time after which the concentration in the cells was basically stable [1] | incubation time after which the concentration in the cells was basically stable [2] | incubation time after which the concentration in the cells was basically stable [3]
3-hexoxymethyl-3-devinyl-chlorin e4 disodium salt [CEFO] | 10 h | 8 h | 10 h
3-n-hexylaminomethyl-3-devinyl-chlorin e4 disodium salt [CEFN] | 10 h | 8 h | 10 h
